Laboratory results as given in PMC8034953.
These are yes or no findings as the source states them, for the method shown. In cells and extracts the contact can be indirect. Some results given as binding are weak or reduced against the parent protein; the word gives no strength.

Amino acid sequences for entries named in this document (tags omitted).
UniProt P19484: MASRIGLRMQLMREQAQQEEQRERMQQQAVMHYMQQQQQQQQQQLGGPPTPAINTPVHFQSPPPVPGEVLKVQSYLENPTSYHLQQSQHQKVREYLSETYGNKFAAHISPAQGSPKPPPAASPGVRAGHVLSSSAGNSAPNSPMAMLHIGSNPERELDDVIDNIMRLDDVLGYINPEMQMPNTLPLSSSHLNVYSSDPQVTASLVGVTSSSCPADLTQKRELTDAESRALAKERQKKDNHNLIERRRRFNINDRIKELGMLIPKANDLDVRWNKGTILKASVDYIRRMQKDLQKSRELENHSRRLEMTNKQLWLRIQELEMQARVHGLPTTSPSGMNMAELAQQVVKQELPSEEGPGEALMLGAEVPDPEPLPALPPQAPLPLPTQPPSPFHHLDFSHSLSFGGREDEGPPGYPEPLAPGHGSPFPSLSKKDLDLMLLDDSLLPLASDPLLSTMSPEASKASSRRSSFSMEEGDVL

Target: Transcription factor EB (human (endogenous in HK2)) (UniProt P19484)
Assay: co-IP; HK2 whole-cell extracts (1 mg protein in 100 μL lysis buffer), precleared; 1 μg rabbit anti-PGC-1α or rabbit anti-TFEB overnight at 4 °C, protein A/G agarose; western blot for TFEB and PGC-1α; anti-IgG as negative control

B1: peroxisome proliferator-activated receptor γ coactivator-1 alpha (protein, UniProt Q9UBK2-1 1-798)
chain: MAWDMCNQDSESVWSDIECAALVGEDQPLCPDLPELDLSELDVNDLDTDSFLGGLKWCSDQSEIISNQYNNEPSNIFEKIDEENEANLLAVLTETLDSLPVDEDGLPSFDALTDGDVTTDNEASPSSMPDGTPPPQEAEEPSLLKKLLLAPANTQLSYNECSGLSTQNHANHNHRIRTNPAIVKTENSWSNKAKSICQQQKPQRRPCSELLKYLTTNDDPPHTKPTENRNSSRDKCTSKKKSHTQSQSQHLQAKPTTLSLPLTPESPNDPKGSPFENKTIERTLSVELSGTAGLTPPTTPPHKANQDNPFRASPKLKSSCKTVVPPPSKKPRYSESSGTQGNNSTKKGPEQSELYAQLSKSSVLTGGHEERKTKRPSLRLFGDHDYCQSINSKTEILINISQELQDSRQLENKDVSSDWQGQICSSTDSDQCYLRETLEASKQVSPCSTRKQLQDQEIRAELNKHFGHPSQAVFDDEADKTGELRDSDFSNEQFSKLPMFINSGLAMDGLFDDSEDESDKLSYPWDGTQSYSLFNVSPSCSSFNSPCRDSVSPPKSLFSQRPQRMRSRSRSFSRHRSCSRSPYSRSRSRSPGSRSSSRSCYYYESSHYRHRTHRNSPLYVRSRSRSPYSRRPRYDSYEEYQHERLKREEYRREYEKRESERAKQRERQRQKAIEERRVIYVGKIRPDTTRTELRDRFEVFGEIEECTVNLRDDGDSYGFITYRYTCDAFAALENGYTLRRSNETDFELYFCGRKQFFKSNYADLDSNSDDFDPASTKSKYDSLDFDSLLKEAQRSLRR
binding: binds
